Results taken from publication PMC11841921.
Results are given in words; binding and its absence hold for the method and conditions named. Binding seen in cells or lysates may run through a third protein. Some results given as binding are weak or reduced against the parent protein; the word gives no strength.

Sequences of proteins named here, by UniProt entry; tags and fusion partners are left off. A change or cut given only in a name is not applied to a line headed by its entry. Residues count along the entry.
UniProt Q9NR61, residues 27-685: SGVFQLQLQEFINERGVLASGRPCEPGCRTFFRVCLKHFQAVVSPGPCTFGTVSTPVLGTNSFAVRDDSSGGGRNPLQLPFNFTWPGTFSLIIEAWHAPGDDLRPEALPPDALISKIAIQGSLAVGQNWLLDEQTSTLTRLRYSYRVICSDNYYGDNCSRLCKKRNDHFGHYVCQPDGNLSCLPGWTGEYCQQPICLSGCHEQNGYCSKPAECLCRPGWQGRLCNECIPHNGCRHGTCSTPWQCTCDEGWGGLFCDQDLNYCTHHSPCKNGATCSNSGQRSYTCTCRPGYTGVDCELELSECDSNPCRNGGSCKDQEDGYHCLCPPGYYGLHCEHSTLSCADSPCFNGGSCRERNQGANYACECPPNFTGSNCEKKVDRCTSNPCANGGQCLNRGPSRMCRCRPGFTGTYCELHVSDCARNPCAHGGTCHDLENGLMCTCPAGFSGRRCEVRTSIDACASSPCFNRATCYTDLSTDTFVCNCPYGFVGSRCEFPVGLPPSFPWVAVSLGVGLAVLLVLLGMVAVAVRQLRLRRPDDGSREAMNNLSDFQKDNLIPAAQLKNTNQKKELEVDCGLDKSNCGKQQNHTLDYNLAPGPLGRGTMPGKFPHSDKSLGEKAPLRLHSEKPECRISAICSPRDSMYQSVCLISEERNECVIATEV
UniProt P78504: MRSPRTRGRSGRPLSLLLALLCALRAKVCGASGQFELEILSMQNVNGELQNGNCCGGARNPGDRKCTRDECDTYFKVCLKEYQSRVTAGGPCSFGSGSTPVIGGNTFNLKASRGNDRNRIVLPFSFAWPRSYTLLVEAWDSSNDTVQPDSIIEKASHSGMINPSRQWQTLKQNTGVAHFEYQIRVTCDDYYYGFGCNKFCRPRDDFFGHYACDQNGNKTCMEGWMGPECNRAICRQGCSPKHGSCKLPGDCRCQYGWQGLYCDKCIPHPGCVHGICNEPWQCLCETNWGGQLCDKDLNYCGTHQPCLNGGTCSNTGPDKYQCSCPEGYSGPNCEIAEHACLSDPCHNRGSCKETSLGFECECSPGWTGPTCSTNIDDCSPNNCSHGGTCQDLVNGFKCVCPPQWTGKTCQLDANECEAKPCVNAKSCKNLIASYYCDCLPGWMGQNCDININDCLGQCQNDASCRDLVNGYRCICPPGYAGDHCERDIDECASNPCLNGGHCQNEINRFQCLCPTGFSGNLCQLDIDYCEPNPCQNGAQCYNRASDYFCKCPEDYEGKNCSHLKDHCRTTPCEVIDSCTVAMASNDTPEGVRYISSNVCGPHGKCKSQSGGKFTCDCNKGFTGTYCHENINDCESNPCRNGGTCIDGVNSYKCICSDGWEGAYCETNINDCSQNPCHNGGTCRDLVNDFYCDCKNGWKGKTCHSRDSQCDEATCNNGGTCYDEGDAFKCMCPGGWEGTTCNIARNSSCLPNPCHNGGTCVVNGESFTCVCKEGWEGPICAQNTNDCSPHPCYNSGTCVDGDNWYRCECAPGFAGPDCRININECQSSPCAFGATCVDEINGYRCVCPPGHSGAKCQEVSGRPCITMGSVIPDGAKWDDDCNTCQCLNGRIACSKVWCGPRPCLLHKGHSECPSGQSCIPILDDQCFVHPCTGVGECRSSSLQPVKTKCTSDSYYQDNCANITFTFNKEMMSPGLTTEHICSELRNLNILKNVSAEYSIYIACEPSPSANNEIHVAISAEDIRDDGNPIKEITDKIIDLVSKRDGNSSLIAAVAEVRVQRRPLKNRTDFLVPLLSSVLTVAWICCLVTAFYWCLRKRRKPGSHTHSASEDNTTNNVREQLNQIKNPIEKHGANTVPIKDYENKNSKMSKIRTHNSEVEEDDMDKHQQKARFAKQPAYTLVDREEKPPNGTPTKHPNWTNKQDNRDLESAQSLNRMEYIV
UniProt Q9Y219, residues 24-1238: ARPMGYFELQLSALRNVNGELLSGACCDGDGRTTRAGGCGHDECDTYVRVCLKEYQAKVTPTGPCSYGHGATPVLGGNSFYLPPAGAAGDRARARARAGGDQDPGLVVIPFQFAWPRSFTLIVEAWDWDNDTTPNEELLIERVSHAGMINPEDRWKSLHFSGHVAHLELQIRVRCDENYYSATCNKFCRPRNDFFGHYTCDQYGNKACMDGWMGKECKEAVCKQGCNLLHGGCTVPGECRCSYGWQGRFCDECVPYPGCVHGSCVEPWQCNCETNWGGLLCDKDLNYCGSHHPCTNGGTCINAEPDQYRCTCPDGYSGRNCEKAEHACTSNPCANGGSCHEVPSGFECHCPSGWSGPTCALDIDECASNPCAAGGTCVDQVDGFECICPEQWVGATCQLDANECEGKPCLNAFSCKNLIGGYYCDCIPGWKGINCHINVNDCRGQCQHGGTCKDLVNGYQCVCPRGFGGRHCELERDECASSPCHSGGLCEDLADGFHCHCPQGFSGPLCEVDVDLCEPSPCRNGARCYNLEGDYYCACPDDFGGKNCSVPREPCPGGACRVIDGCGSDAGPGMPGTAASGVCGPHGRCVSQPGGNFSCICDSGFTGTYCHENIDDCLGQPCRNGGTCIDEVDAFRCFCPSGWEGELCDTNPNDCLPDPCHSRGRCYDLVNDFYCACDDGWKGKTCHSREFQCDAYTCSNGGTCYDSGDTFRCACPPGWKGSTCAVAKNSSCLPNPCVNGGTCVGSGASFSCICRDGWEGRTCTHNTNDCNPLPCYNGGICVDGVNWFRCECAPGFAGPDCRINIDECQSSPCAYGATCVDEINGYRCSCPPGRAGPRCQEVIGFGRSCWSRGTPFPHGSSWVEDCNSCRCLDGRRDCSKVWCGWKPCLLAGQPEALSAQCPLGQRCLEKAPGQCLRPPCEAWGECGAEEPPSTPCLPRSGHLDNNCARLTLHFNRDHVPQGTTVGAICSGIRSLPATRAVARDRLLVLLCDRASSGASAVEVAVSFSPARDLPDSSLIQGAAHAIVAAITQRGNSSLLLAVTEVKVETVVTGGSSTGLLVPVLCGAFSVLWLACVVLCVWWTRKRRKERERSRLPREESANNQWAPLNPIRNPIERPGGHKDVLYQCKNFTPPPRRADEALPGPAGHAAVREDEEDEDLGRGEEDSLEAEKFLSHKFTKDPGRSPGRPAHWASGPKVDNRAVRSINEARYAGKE
UniProt Q9UM47, residues 40-2321: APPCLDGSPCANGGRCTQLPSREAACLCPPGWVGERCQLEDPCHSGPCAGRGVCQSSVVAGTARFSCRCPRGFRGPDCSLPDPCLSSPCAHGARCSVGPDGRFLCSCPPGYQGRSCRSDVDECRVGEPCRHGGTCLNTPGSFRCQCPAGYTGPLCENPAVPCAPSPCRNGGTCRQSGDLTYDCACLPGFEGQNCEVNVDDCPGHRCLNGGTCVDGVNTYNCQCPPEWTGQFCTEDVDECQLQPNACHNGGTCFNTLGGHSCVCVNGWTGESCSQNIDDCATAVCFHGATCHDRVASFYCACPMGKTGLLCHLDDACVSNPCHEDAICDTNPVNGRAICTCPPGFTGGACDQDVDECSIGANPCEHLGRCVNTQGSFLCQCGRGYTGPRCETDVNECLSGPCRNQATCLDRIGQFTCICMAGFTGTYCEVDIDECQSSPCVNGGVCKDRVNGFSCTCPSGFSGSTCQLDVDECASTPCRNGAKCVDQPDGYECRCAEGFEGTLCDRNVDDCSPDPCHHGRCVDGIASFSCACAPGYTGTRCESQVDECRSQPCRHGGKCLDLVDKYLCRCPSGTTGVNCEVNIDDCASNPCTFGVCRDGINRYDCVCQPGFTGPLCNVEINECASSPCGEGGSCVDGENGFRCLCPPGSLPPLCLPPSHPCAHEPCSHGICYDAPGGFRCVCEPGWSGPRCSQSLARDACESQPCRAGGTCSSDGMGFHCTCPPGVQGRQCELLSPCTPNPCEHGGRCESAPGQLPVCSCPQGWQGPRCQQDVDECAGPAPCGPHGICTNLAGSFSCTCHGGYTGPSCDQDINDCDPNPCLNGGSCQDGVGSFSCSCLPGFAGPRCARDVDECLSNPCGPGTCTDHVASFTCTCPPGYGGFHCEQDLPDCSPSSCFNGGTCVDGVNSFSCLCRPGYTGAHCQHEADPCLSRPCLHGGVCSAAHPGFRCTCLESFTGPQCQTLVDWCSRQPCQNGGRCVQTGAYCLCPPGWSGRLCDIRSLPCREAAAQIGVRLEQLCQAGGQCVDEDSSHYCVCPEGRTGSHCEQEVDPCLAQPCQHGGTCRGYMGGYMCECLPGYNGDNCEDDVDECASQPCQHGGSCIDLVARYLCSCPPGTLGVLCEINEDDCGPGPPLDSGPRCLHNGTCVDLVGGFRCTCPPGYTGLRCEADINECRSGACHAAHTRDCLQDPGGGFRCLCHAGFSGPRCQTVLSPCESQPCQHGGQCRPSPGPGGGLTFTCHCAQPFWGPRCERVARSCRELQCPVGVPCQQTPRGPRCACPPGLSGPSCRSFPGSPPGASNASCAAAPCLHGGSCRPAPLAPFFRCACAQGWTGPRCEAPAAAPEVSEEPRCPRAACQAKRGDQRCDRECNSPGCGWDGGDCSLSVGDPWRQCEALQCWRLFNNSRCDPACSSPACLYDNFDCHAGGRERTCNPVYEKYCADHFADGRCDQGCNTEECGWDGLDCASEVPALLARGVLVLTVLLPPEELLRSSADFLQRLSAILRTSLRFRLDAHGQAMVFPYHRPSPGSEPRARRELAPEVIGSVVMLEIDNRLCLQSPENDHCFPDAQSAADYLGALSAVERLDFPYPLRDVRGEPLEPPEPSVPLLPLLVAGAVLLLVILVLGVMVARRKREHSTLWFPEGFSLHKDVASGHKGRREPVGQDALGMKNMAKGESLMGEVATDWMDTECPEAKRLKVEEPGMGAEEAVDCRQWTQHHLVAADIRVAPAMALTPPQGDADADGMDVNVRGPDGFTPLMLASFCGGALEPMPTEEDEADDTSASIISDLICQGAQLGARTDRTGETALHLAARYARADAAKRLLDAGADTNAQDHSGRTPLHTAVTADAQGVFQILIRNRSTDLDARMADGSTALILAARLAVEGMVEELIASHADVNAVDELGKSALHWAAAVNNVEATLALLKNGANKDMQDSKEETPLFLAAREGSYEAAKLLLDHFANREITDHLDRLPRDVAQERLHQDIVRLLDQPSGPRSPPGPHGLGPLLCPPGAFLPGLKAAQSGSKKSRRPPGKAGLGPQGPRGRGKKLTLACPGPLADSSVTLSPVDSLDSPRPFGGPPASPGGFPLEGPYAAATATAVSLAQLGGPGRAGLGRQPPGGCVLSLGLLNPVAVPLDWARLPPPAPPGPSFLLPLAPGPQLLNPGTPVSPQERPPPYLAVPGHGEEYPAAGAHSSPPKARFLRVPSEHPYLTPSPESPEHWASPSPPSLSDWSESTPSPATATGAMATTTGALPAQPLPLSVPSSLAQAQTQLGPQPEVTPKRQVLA

Legend:
[1] = molecular target: DLL4, epitope tagged (HIS6 or HA), expressed in 293T cells (UniProt Q9NR61); experiment: pull-down; HA and HIS epitope tagged ligand constructs co-transfected into 293T cells; complexes resolved using Nickel-NTA agarose (binds HIS6 tagged ligands); Western blot
[2] = molecular target: DLL4, epitope tagged (HIS6 or HA), expressed in 293T cells (UniProt Q9NR61); experiment: pull-down; HIS tagged DLL4 immunopurified from 293T cells on nickel-NTA agarose, incubated with combinations of cell-expressed HA tagged DLL4 and JAG1; Western blot, bands quantified; only the target purified
[3] = molecular target: JAG1, epitope tagged (HIS6 or HA), expressed in 293T cells (UniProt P78504); experiment: co-IP; 293T cells co-transfected with HA-tagged JAG1 and HIS6-tagged Notch (in cis); ligand resolved using an anti-HA antibody; Western blot
[4] = molecular target: JAG2, epitope tagged (HIS6 or HA), expressed in 293T cells (UniProt Q9Y219); experiment: pull-down; HA and HIS epitope tagged ligand constructs co-transfected into 293T cells; complexes resolved using Nickel-NTA agarose (binds HIS6 tagged ligands); Western blot
[5] = molecular target: HA epitope tagged Notch2, stably expressed on 293T cells (UniProt Q04721); experiment: cross-linking + co-IP; cell surface ligand/receptor binding assay: 293T cells stably expressing HA-tagged Notch receptor incubated with 50 μL of HIS tagged ligand (0.5 mg/ml) in 1.5 mls PBS/BSA, 1 hour, 4 °C; cross-linked with DSS and BS3; lysed; immunoprecipitated with anti-HA; Western blot anti-HIS; only the binder purified
[6] = molecular target: HA epitope tagged Notch3, stably expressed on 293T cells (UniProt Q9UM47); experiment: as above

Substance | binding [1] | binding [2] | further results
DLL4, epitope tagged (HIS6 or HA), expressed in 293T cells (from UniProt Q9NR61 27-685) (ligand) | binds | binds | 
HIS6 epitope-tagged Notch (Notch1), co-transfected in 293T cells (from UniProt P46531 19-2555) (receptor) |  |  | binding [3]: binds
JAG1, epitope tagged (HIS6 or HA), expressed in 293T cells (from UniProt P78504 34-1218) (ligand) | binds | binds | 
JAG2, epitope tagged (HIS6 or HA), expressed in 293T cells (from UniProt Q9Y219 24-1238) (ligand) |  |  | binding [4]: binds
Recombinant human JAG1 protein, HIS epitope tagged (from UniProt P78504 34-1067) (ligand) |  |  | binding [5]: binds; binding [6]: binds
